Laboratory results from article doi:10.1101/2024.06.07.597857.
These are yes or no findings as the source states them, for the method shown. Binding seen in cells or lysates may run through a third protein. A yes stands for co-enrichment or nearness to the bait. Other partners may have been found.

By UniProt entry, the sequences of proteins in these tests, tags left out.
UniProt P35222: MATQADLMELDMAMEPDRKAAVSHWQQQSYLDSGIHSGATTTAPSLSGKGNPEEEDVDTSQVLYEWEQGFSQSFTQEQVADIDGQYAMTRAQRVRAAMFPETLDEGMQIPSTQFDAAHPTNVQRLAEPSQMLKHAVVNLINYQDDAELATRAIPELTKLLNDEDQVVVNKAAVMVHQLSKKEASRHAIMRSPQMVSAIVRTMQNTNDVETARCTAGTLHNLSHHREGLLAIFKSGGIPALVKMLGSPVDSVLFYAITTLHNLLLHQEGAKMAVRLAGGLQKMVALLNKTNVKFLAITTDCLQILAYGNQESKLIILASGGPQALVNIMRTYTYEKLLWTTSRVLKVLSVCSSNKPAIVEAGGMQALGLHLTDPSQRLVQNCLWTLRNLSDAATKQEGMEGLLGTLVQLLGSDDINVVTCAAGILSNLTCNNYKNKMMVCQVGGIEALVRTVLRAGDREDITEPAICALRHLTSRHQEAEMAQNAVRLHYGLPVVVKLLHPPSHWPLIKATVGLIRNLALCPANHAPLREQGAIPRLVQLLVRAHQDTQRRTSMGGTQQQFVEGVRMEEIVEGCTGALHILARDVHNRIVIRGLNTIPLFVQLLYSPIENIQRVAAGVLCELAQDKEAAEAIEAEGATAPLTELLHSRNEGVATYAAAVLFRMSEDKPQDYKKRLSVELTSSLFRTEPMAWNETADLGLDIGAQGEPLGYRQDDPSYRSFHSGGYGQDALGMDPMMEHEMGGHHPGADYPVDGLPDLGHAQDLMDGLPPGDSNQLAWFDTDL
UniProt Q7Z4V5: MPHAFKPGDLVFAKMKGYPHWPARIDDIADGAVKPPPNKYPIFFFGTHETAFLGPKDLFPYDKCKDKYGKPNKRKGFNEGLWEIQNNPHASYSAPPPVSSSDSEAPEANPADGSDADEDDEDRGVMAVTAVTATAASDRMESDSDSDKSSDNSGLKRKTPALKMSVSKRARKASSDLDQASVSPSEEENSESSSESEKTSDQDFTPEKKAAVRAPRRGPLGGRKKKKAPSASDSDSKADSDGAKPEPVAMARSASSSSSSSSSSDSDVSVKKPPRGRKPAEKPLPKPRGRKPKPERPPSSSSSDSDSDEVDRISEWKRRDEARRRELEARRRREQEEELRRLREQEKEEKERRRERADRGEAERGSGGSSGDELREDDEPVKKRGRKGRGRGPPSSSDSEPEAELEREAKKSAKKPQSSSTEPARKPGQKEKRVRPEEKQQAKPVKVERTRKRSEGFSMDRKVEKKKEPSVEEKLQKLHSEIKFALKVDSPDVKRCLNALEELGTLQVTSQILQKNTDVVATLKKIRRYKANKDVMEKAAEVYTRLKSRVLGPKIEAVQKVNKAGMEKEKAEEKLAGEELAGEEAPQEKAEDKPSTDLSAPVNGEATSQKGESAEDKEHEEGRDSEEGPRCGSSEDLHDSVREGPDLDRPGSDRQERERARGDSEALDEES

Molecular target: β-catenin (human (endogenous in ovarian carcinoma cells)) (UniProt P35222)
Test: affinity purification with mass spectrometry

binding: binds
Substance: hepatoma-derived growth factor related protein 2 (HRP2) (from UniProt Q7Z4V5 1-671)
